From PubChem BioAssay (Tox21)
All entries are inconclusive by the source's own rule. Clear calls are listed elsewhere. Unless noted, calls come from the whole dose curve; as a rule, active = well fitted curve in the direction sought with a large enough effect in the repeat runs; inconclusive = weak or mixed curves; inactive = no such curve, though single readings can be large; an effect the other way counts as inactive or inconclusive.

Protein sequences, listed by entry. Tags and fused reporters are not part of them.
UniProt P16473, whole entry: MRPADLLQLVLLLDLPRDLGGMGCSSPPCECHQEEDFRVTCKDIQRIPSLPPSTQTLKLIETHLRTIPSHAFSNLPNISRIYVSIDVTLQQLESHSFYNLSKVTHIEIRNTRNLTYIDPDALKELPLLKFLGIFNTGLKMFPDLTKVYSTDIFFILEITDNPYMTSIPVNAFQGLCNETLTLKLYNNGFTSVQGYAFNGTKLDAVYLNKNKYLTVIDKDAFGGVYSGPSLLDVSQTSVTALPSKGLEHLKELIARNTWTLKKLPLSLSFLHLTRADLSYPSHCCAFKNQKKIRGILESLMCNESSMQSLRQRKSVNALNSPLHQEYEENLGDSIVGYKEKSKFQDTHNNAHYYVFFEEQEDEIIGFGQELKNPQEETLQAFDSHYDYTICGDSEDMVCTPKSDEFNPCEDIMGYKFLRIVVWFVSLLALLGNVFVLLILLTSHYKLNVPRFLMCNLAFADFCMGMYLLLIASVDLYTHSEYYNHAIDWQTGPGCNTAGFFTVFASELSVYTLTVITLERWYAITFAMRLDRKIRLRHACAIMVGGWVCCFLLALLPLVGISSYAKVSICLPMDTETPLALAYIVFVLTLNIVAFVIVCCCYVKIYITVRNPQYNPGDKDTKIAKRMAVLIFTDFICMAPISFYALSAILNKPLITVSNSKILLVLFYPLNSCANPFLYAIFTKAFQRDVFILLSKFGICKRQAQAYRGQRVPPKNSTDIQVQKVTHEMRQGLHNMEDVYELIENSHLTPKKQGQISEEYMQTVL
UniProt O75469, whole entry: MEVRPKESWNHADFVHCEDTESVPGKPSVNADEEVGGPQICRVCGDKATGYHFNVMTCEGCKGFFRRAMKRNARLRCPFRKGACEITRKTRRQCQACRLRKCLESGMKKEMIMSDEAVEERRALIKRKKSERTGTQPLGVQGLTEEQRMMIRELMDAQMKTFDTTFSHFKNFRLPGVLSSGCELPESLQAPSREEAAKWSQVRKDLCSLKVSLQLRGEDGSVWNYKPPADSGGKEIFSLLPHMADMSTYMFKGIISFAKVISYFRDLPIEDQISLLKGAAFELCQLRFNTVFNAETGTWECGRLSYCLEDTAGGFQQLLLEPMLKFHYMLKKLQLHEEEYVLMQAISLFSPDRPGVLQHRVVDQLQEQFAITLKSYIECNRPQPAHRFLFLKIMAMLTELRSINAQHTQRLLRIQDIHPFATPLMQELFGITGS

Experiments:
[1] = qHTS assay for small molecule disruptors of the mitochondrial membrane potential (AID 720635); conditions: HepG2 mitochondrial membrane potential, Mito-MPS dye ratio; series mostly up to 83.2 µM
In short: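 HepG2 cells (2,000/well) attached overnight at 37C, then took compound for 1 hr at 37C, 5% CO2. Mito-MPS dye was added for 30 min; fluorescence was read at 490/535 nm (monomers) and 540/590 nm (aggregates).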

[2] = qHTS assay to identify small molecule antagonists of the peroxisome proliferator-activated receptor gamma (PPARg) signaling pathway - cell viability counter screen (AID 743194); conditions: PPARg-bla HEK293H viability, CellTiter-Glo luminescence, 17 h; co-treated with 50 nM rosiglitazone; note: nearly all actives have a fitted effect of over 55% in size
In short: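 PPARg-UAS-bla HEK293H cells were plated, rested 5 h at 37 C, then treated with compounds plus rosiglitazone (50 nM final) for 17 h at 37 C; viability was then read by CellTiter-Glo luminescence after 30 min at room temperature.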

[3] = qHTS assay for small molecule activators of the heat shock response signaling pathway - cell viability counter screen (AID 743209); conditions: HSE-bla HeLa viability, CellTiter-Glo luminescence, 5 h; note: nearly all actives have a fitted effect of over 50% in size
In short: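 Same-well multiplex: after 2.5 h room-temperature incubation with LiveBLAzer B/G substrate and fluorescence reading, CellTiter-Glo reagent was added to HSE-bla HeLa cells that had received compound for 5 h at 37 C; luminescence read after 30 min.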

[4] = qHTS assay to identify small molecule agonists of the NFkB signaling pathway - cell viability counter screen (AID 1159515; calls by dose curve; note: nearly all actives have a fitted effect of over 55% in size); conditions: NFkB-bla ME-180 viability, CellTiter-Glo luminescence, 5 h
In short: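 Plate 2,000 NFkB-bla ME-180 cells/well; incubate overnight. Add compounds, 5 hr at 37 C. Add FRET substrate, 1.5 hr RT. Add CellTiter-Glo, 30 min RT; read luminescence.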

[5] = qHTS assay to identify small molecule agonists of the endoplasmic reticulum stress response signaling pathway (AID 1159516; active = well fitted activation curve with a large enough effect in the signal ratio in the repeat runs, not every such curve was filed as active; inconclusive = weak or mixed curves, or effect the other way; the % refers to the signal ratio); conditions: ESRE-bla HeLa, ER stress beta-lactamase reporter, 5 h
In short: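 Beta-lactamase expression from the ER stress response element in HeLa reporter cells is quantified with the LiveBLAzer B/G FRET substrate, read at 405 nm excitation after 2 hr at room temperature, following 5 hr compound treatment at 37 C.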

[6] = qHTS assay to identify small molecule agonists of the endoplasmic reticulum stress response signaling pathway - cell viability counter screen (AID 1159517; calls by dose curve; note: nearly all actives have a fitted effect of over 50% in size); conditions: ESRE-bla HeLa viability, CellTiter-Glo luminescence, 5 h
In short: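 Cpd-treated ESRE-bla HeLa (5 hr, 37 C) → LiveBLAzer 2 hr RT → CellTiter-Glo 30 min RT → luminescence.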

[7] = qHTS assay to identify small molecule antagonists of the retinoid-related orphan receptor gamma (ROR-gamma) signaling pathway - cell viability counter screen (AID 1159520); conditions: Tet-on RORgamma CHO cells viability, ATP luminescence, 16 h; note: nearly all actives have a fitted effect of over 50% in size
In short: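 Tet-on ROR gamma CHO cells (1,000/well) were plated 4 hr, given compounds in DMSO for 2 hr at 37 C, then induced with 1 uM final doxycycline for 16 hr. Viability was read as ATP by CellTiter-Glo luminescence after 30 min.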

[8] = qHTS assay to identify small molecule agonists of the hypoxia (HIF-1) signaling pathway - cell viability counter screen (AID 1224844; calls by dose curve; note: nearly all actives have a fitted effect of over 50% in size); conditions: HRE-bla ME-180 viability, CellTiter-Glo luminescence, 17 h
In short: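 Same wells as the HIF-1 reporter screen; ME-180 cells carrying HRE-bla, 17 hr treatment at 37C; CellTiter-Glo luminescence read after 30 min at room temperature.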

[9] = target: Thyrotropin receptor (Homo sapiens) (UniProt P16473); test: qHTS assay to identify small molecule antagonists of the thyroid stimulating hormone receptor (TSHR) signaling pathway (AID 1259385; calls by dose curve; note: nearly all actives have a fitted effect of over 20% in size); conditions: TSHR-HEK293 cAMP HTRF, TSH-stimulated antagonist mode
[10] = Human pregnane X receptor (PXR) small molecule agonists, qHTS cell viability counter screen (AID 1346977); conditions: PXR-Luc HepG2 viability, CellTiter-Fluor, 24 h; note: nearly all actives have a fitted effect of over 50% in size
In short: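 PXR-Luc HepG2 cells (2,000/well, 5% charcoal-stripped FBS) preincubated 5 hr, then exposed to compounds 24 hr at 37 C. Viability read in the same wells by CellTiter-Fluor fluorescence, reagent added at 23 hr, 1 hr incubation.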

[11] = Caspase-3/7 induction in HepG2 cells by small molecules, qHTS cell viability counter screen (AID 1346981); conditions: CellTiter-Fluor fluorescence, 17 h; note: nearly all actives have a fitted effect of over 30% in size
In short: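 The parent HepG2 line is plated at 2,000 cells per well and rested 5 hr before compound pinning from DMSO stocks. Following a 16-hr treatment at 37 C, a fluorogenic live-cell substrate (CellTiter-Fluor) reports viability after 1 hr.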

[12] = target: Nuclear receptor subfamily 1 group I member 2 (Homo sapiens) (UniProt O75469); test: Human pregnane X receptor (PXR) small molecule agonists, qHTS assay (AID 1346982); conditions: PXR-Luc HepG2, CYP3A4 luciferase reporter, 24 h; note: nearly all actives have a fitted effect of over 35% in size
In short: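 After plating in 5% charcoal-stripped FBS and a 5 hr rest, PXR-Luc HepG2 cells received compounds in DMSO. Following 24 hr at 37 C, ONE-Glo was added and light output read.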

[13] = qHTS assay to identify small molecule antagonists of the farnesoid-X-receptor (FXR) signaling pathway - cell viability counter screen (AID 743221; active = well fitted cell-killing curve with a large enough effect in the repeat runs, not every such curve was filed as active; inconclusive = weak or mixed curves, or effect the other way; inactive = no such curve, though single readings can be large or run the other way; note: nearly all actives have a fitted effect of over 50% in size); conditions: FXR-bla HEK293T viability, CellTiter-Glo luminescence, 16 h
In short: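 GeneBLAzer FXR-UAS-bla HEK 293T cells, compound plus chenodeoxycholic acid (50 uM final), 16 h at 37 C. CellTiter-Glo added to the same wells after the beta-lactamase read; luminescence read after 30 min at room temperature as viability.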

[14] = qHTS assay to identify small molecule agonists of the AP-1 signaling pathway (AID 1159526; calls by dose curve); conditions: ME-180 (cervical carcinoma) AP-1-bla reporter, beta-lactamase FRET ratio, 5 h
[15] = qHTS assay to identify small molecule agonists of the retinoic acid receptor (RAR) signaling pathway (AID 1159553); conditions: C3RL4 RARE luciferase reporter, agonist, 6 h
In short: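 Compounds dissolved in DMSO were pinned onto C3RL4 cells seeded the previous day, and plates were held 6 hr at 37 C. RARE-driven luciferase output was then read by luminescence.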

[16] = qHTS assay to identify small molecule antagonists of the estrogen related receptor (ERR) signaling pathway from Tox21 library - cell viability counter screen (AID 1224834); conditions: ERR reporter cells viability, CellTiter-Fluor, 17.5 h; note: nearly all actives have a fitted effect of over 30% in size
In short: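 In this quantitative HTS format, ERR cells receive compounds in DMSO and are incubated for 17.5 h at 37 C. Live-cell protease activity is then detected with CellTiter-Fluor.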

Measured: Potency
Potency is the fitted concentration of half-maximal effect.

CN(N=O)C(=N)N[N+](=O)[O-]
inconclusive: [1] 68.2 µM | [2] 54.6 µM | [3] 54.6 µM | [4] 54.6 µM | [5] 54.6 µM | [6] 61.3 µM | [7] 68.2 µM | [8] 48.7 µM | [9] 68.2 µM | [10] 54.2 µM | [11] 60.8 µM | [12] 60.8 µM

CCN(CC)CCCl
inconclusive: [13] 55.7 µM | [14] 0.626 µM

C/C1=C2N=C(/C=C3N=C(/C(C)=C4\[N-][C@@](C)([C@@H]5N=C1[C@](C)(CCC(=O)NC[C@@H](C)OP(=O)([O-])O[C@H]1[C@@H](O)[C@@H](n6cnc7cc(C)c(C)cc76)O[C@@H]1CO)[C@H]5CC(N)=O)[C@@](C)(CC(N)=O)[C@@H]4CCC(N)=O)[C@@](C)(CC(N)=O)[C@@H]\3CCC(N)=O)C(C)(C)[C@@H]/2CCC(N)=O.[C-]#N.[Co+3]
inconclusive: [15] 2.98 µM | [16] 23.7 µM
